Measured values published in patent US20240082392A1, “USE OF SYNTHETIC PEPTIDE FOR THE INDUCTION OF ANTITUMOR AND ANTIVIRAL IMMUNITY” (CENTRO DE INGENIERÍA GENÉTICA Y BIOTECNOLOGÍA, priority 2020, published 2024).
At least one peptide structure holds a part that was inferred or is arguable (an end, a ring closure or a residue). Where a SMILES comes first, the peptide text is derived from it. Bridges are numbered along the chain shown (N, C = ends).

Columns and labels:
[1] = test system: mouse lymphocytic leukemia cells L1210; test: Cell death induction by Annexin V-FITC/7-AAD flow cytometry; assay type: cell-based; details: 10 μM, 20 minutes
[2] = test system: cells from patients with acute myeloid leukemia; test: Ex vivo induction of cell death in patient samples; assay type: cell-based, human; details: 40 μM, 24 hours
L1210 cells [3] = test: CRT and Erp57 translocation to the cell membrane, flow cytometry; assay type: cell-based, mouse; details: 40 μM, 3 and 5 hours; compared to cells without treatment and to CX4945 5 μM 24 hours
CD47 in HL60 cells = test: CD47 gene expression, microarray and qPCR; assay type: cell-based; details: HL60, 40 μM, 3 hours, microarrays and qPCR, relative to untreated cells
CD47 in OCI-AML3 cells = test: CD47 gene expression, microarray and qPCR; assay type: cell-based; details: OCI-AML3, 40 μM, 3 hours, microarrays and qPCR, relative to untreated cells
[4] = test system: human and murine tumor cell lines; test: HMGB-1 release into culture supernatant, ELISA; assay type: cell-based; details: 40 μM
[5] = test system: patients with acute myeloid leukemia; test: HMGB-1 in serum of treated patients, ELISA; assay type: in vivo, human; details: weeks 0, 3 and 6, mainly at the sixth week of treatment
[6] = test system: human and murine tumor cell lines; test: ATP secretion, luciferin-based ENLITEN ATP Assay; assay type: cell-based
[7] = test system: human and murine tumor cell lines; test: Surface HSP70 expression, anti-HSP70 staining; assay type: cell-based; details: 40 μM, 5 and 24 hours; compared to the rest of evaluated conditions
[8] = test system: L1210 cells / dendritic cells of DBA/2 mice; test: Phagocytosis and maturation of dendritic cells co-cultured with treated tumor cells; assay type: cell-based, mouse; details: L1210 treated with 40 μM for 3 hours, co-culture 48 hours
[9] = test system: 3LL cells / dendritic cells of C57/BL6 mice; test: as above; assay type: cell-based, mouse; details: 3LL treated with 130 μM for 3 hours, co-culture 48 hours
[10] = test system: RagOT-I cells / dendritic cells matured with treated 3LL cells; test: In vitro activation of OT-I CD8+ T cells by dendritic cells, IFN-γ ELISA; assay type: cell-based, mouse; details: versus negative control, CX4945 and Tat peptide
Procedure: Additionally, the ability of activating CD8+ T cells in vitro by these dendritic cells matured with peptide-treated 3LL cells was evaluated. For this purpose, dendritic cells previously co-incubated with tumor cells, under the conditions described above, were washed and loaded with the […] peptide from OVA, MHC class I restricted, at different concentrations (0, 10, 30 and 100 pg/mL) during three hours. After that time, they were washed again and co-incubated with RagOT-I cells in a 1:1 ratio for 48 hours. IFN-γ production was finally quantified by ELISA. RagOT-I cells co-incubated with dendritic cells previously incubated with untreated 3LL cells constituted the negative control of experiment.

HL-60 cells = test: Phagocytosis of treated tumor cells by M1 and M2 macrophages; assay type: cell-based; details: peptide 40 μM and 10 μM 5 hours
Procedure: Treatment with the peptide identified as SEQ ID NO: 1, as described in examples 2 and 3, is capable of increasing “eat me” signals and decreasing “don't eat me” signals. Therefore, it fostered to evaluate whether the treatment with the peptide identified as SEQ ID NO: 1 facilitate phagocytosis of tumor cells by macrophages, and whether this is performed by M1 or M2 macrophages. For that purpose, HL-60 and OCI-AML3 leukemia tumor cell lines were previously stained with 0.5 μM CFSE and treated with 10 or 40 μM of the peptide identified as SEQ ID NO: 1, for five hours, 5 μM CX4945 for 24 hours or 40 μM Tat during 5 hours. Subsequently, cells were washed and co-cultured with each type of M1 and M2 macrophages, at a 1:1 ratio for three hours. Different types of macrophages were obtained from PBMC of healthy donors by Ficoll™ gradient. Monocytes were purified by positive selection, using CD14 beads with an MS column (Miltenyi Biotech, Germany), obtaining 96% purity. Monocytes were seeded at 0.25×10^6 cells/mL/well, in 12-wells plates and were induced with 100 ng/mL of GM-CSF, for seven days, and with 50 ng/mL of IFN-γ for last 24 hours, to obtain M1 macrophages. M2 macrophages were induced with 50 ng/mL of M-CSF for seven days and 100 ng/mL of IL-10 for last 24 hours. […]

TC-1 cells = test: Antitumor effect combined with vaccine candidate CIGB550-E7+VSSPs (TC-1 therapeutic scenario); assay type: in vivo, C57/BL6 mice; details: peptide 40 mg/kg intratumoral or intravenous prior to the vaccine
OVA protein = test: Induction of antibodies against OVA protein, ELISA; assay type: in vivo, BALB/c mice; details: 10 μg OVA protein and 100 μg peptide, days 0, 14 and 28, subcutaneous; blood days 21 and 42
[11] = test system: recombinant vaccinia virus expressing HCV structural proteins; set-up: species or system BALB/c mice; details: mouse, in vivo
SARS-CoV-2 = test: Phase I/II clinical trial, anti-NP and anti-RBD IgG ELISA; assay type: in vivo, human; details: 2.5 mg/kg intravenous once a day for five days, along with standard therapy
3LL-OVA cells = test: Enhancement of dendritic cell vaccine (DC+OVA); assay type: in vivo, C57/BL6 mice; details: peptide 40 mg/kg intratumoral combined with dendritic cells vaccine (DC+OVA); versus the rest of groups
L1210 cells [12] = test: Enhancement of TIL-based antitumor treatment; assay type: in vivo, DBA/2 mice
[13] = test system: Lewis Lung Carcinoma cells; test: Anti-PDL1 therapy in a murine model of lung cancer; assay type: in vivo, C57/BL6 mice
Source text: Taking into account the results obtained in the in vitro test, it was decided to evaluate whether the use of the peptide identified as SEQ ID NO: 1 improved the antitumor efficacy of anti-PDL1 therapy in a murine model of lung cancer. For that, 2×10^5 Lewis Lung Carcinoma cells were subcutaneously implanted (day 0) in 6-8 weeks old C57/BL6 female mice with 17-19 grams of body weight. Nine days after the tumor challenge, 42 animals with 40 mm^3 tumors were randomized into six groups with seven mice each. CX4945 (75 mg/kg) was orally administered in 25 mM NaH2PO4 buffer twice daily. 40 mg/kg of the peptide identified as SEQ ID NO: 1 and 100 μg anti-PDL1 antibody (clone 10F.9G2, isotype rat IgG2b kappa) were intraperitoneally applied. Tumor volume and body weight were determined 3 times a week for 40 days. Tumor volume was measured and calculated as described in Example 7.

[14] = versus the rest of conditions, p<0.05

## CSCC[C@@H]1NC(=O)[C@H](Cc2c[nH]c3ccccc23)NC(=O)[C@@H](NC(=O)[C@H](C)NC(=O)[C@H](CCC(N)=O)NC(=O)[C@@H]2CCCN2C(=O)[C@@H]2CCCN2C(=O)[C@H](CCCNC(=N)N)NC(=O)[C@H](CCCNC(=N)N)NC(=O)[C@H](CCCNC(=N)N)NC(=O)[C@H](CCC(N)=O)NC(=O)[C@H](CCCNC(=N)N)NC(=O)[C@H](CCCNC(=N)N)NC(=O)[C@H](CCCCN)NC(=O)[C@H](CCCCN)NC(=O)[C@H](CCCNC(=N)N)NC(=O)CN)CSSC[C@@H](C(=O)O)NC(=O)[C@H]([C@@H](C)O)NC(=O)CNC(=O)[C@H](CC(C)C)NC(=O)[C@H](Cc2c[nH]cn2)NC(=O)[C@H](CCCNC(=N)N)NC(=O)[C@@H]2CCCN2C(=O)[C@H](CO)NC1=O [peptide identified as SEQ ID NO: 1] (H-GRKKRRQRRRPPQACWMSPRHLGTC-OH; disulfide 15-25)
[1]; 4° C.
  increase of the percentage of apoptotic cells (Annexin V+/7-AAD−): not detected
[1]; 37° C.
  increase of the percentage of apoptotic cells (Annexin V+/7-AAD−): up to 15 folds
[2]
  patients in whom induction of cell death was observed: 6 out of 10
L1210 cells [3]
  percentage of CRT+ cells: increased significantly
  percentage of Erp57+ cells: increased significantly
CD47 in HL60 cells
  CD47 messenger RNA (mRNA) levels: significant decrease
CD47 in OCI-AML3 cells
  CD47 messenger RNA (mRNA) levels: significant decrease
[4]; 5 and 24 hours, versus untreated cells, Tat peptide or CX4945
  HMGB-1 release to culture medium: statistically higher
[4]; 24 hours, versus 5 μM DOX 24 hours
  HMGB-1 levels secreted into culture medium versus DOX: significantly higher
[5]
  patients with an increase in serum HMGB-1 levels: 4 out of 5
[6]; 40 μM peptide versus 5 μM DOX 24 hours
  ATP levels versus DOX: even higher
[6]; 40 μM, 5 and 24 hours, compared to untreated cells and CX4945
  ATP levels in supernatants of tumor cell cultures: increased significantly
[7]
  HSP70 positive cells percentage: significant increase
[8]
  dendritic cells maturation markers CD40, CD86 and MHC-II: increase
[8]; [14]
  percentage of CD11c+/CFSE+ cells (phagocytosis by dendritic cells): significantly higher
[9]
  dendritic cells maturation markers CD40, CD86 and MHC-II: increase
[9]; [14]
  percentage of CD11c+/CFSE+ cells (phagocytosis by dendritic cells): significantly higher
[10]
  IFN-γ production by CD8+ OT-I cells: significantly higher
HL-60 cells
  susceptibility to be phagocytosed by M2 macrophages: not M2 macrophages
HL-60 cells; CX4945 5 μM 24 hours, Tat 40 μM 5 hours
  susceptibility to be phagocytosed by M1 macrophages: increased
TC-1 cells
  antitumor effect of CIGB550-E7+VSSPs vaccine candidate (tumor growth control and mice survival): enhancing antitumor effect
OVA protein
  antibody titers against OVA protein: significantly higher
[11]
  antibody titers against Core.120, E1.340 and E2.680 protein antigens: significantly higher
SARS-CoV-2
  IgG antibody levels against NP and RBD of SARS-CoV-2 virus: significant increase
3LL-OVA cells
  survival of animals: Significant differences
  tumor volume: significantly lower
L1210 cells [12]; TILs from mice treated with the peptide intratumorally or systemically, versus the rest of the groups
  tumor volume mean: significantly lower
L1210 cells [12]; TILs from peptide-treated mice versus those from mice treated with DOX, CX4945 or Tat
  survival of animals: Significant differences
[13]; as alone, plus 100 μg anti-PDL1 antibody intraperitoneal, days 9, 12, 15, 18
  tumor volume, combined with anti-PDL1 antibody: more marked decrease
[13]; peptide 40 mg/kg intraperitoneal or CX4945 75 mg/kg oral twice daily, days 9-13
  tumor progression (tumor volume), alone: significantly reduced
